From PubChem BioAssay AID493014 (National Center for Advancing Translational Sciences (NCATS), 2011)
About 170 (0.05%) of roughly 340,000 compounds were called active. The shares of active, inactive and inconclusive entries below differ from those in the screen. Calls come from the whole dose curve; as a rule, active = well fitted inhibition curve with a large enough effect in the signal ratio, with a control signal flat (not every such curve was filed as active); inconclusive = small, poorly fitted or top-dose-only effect, or effect the other way, or a change in a side signal; inactive = flat fitted curve, though single readings scatter; the % refers to the signal ratio. Potencies beside an inconclusive call are fits to weak or partial responses and may not hold up.

experiment: qHTS Assay to Find Inhibitors of Chronic Active B-Cell Receptor Signaling; details: ABC-DLBCL IkBa-CBG/CBR reporter, luminescence ratio (green luciferase fused to IkBa over red control in TMD8 lymphoma cells), 4 h; activity change, negative = inhibition: at 46.1 µM (top of the series);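 for activity change, negative = inhibition: plate controls were basal doxycycline-induced cells for no effect and cells given 10 µM MG132 for full effect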
How it was run: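 TMD8 human ABC-DLBCL cells with doxycycline-inducible IκBα–green luciferase fusion and unfused red luciferase, in 0.5% FBS medium; compounds up to 46 uM, 4 h at 37C. Green/red luminescence ratio, filter-overlap corrected, fitted to concentration-response curves.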
Potency is the fitted concentration of half-maximal effect.

SMILES | Potency | activity change, negative = inhibition
O=C(Nc1ccc2c(c1)OCO2)c1ccc(NC2CC2)c([N+](=O)[O-])c1 | inconclusive: 20.6 µM [falling, partial curve] | 
O=C(CCl)Nc1c2c(nn1-c1ccccc1)CSC2 | inconclusive: 22.4 µM [falling, partial curve] | 
COc1ccc(S(=O)(=O)N2CCCC2)cc1C(=O)O |  | inconclusive: 9.64%
CCc1ccc(OCC(=O)Nc2ccc(S(=O)(=O)Nc3ccccn3)cc2)cc1 | inconclusive: 35.5 µM [falling, partial curve, poor fit] | 
CC1(C(=O)NNC(=O)c2ccc([N+](=O)[O-])cc2)CC1(Br)Br (stereo unspecified) |  | inactive: -0.492%
Cc1cc(C)cc(NS(=O)(=O)c2ccc3oc(=O)ccc3c2)c1 |  | inactive: 0.505%
Cc1c(C(=O)OCC[N+]2(C)CCCCC2)oc2ccccc12 |  | inconclusive: 3.47%
O=C(Cc1ccc([N+](=O)[O-])cc1)NCc1ccccc1Cl |  | inactive: -0.183%
Nc1ncnc2c1ncn2C1OC(COP(=O)(O)O)C(O)C1O (stereo unspecified) | inconclusive: 14.1 µM [falling, partial curve, poor fit] | 
Cc1cc(C)c(NC(=O)C(C)N2CCCCCC2)c(C)c1 (stereo unspecified) |  | inactive: 3.4%
COC(=O)N1C(=O)[C@](c2ccc(Cl)cc2)(C(C)C)N1C(=O)OC | inconclusive: 35.5 µM [falling, single point] | 
Cn1c(=O)c2c([nH]c(=S)n2Cc2ccc(Cl)cc2)n(C)c1=O |  | inactive: 1.41%
Cc1ccc(Cn2cnc3sc4c(c3c2=O)CCC4)c(C)c1 |  | inactive: 0.895%
Cc1c(NC(=O)c2cc(-n3cnnc3)ccc2Cl)cccc1-c1nc2ccccc2s1 | inconclusive: 25.9 µM [rising, partial curve, poor fit] | 
O=[N+]([O-])c1ccc(SCc2c(F)cccc2Cl)nc1 |  | inconclusive: 12.9%
COc1ccc(S(=O)(=O)N2CCCCC2)cc1NC(=O)Cn1cnc2c1c(=O)n(C)c(=O)n2C | inconclusive: 18.4 µM [falling, single point] | 
Cc1nn(-c2nc3ccccc3[nH]2)c(N)c1-c1ccc(Cl)cc1 | inconclusive: 35.5 µM [falling, single point] | 
CC(=NCc1cccc(Cl)c1)c1nc(-c2ccco2)oc1O |  | inconclusive: 0.526%
COc1ccc(NC(=O)C2CCN(C(=O)c3ccc(OC)cc3)CC2)cc1 |  | inconclusive: -12.8%
CC(=O)Nc1ccc(NC(=O)COc2ccc3c(c2)CCC3)cc1 | inconclusive: 8.91 µM [falling, partial curve, poor fit] | 
OCC[C@@H]1C[C@@H](O)[C@H](O)[C@]2(OCc3ccccc32)O1 | inconclusive: 5.62 µM [falling, single point] | 

An excerpt of these results, as labelled records:
Cc1cc(C)c(NC(=O)C(C)N2CCCCCC2)c(C)c1 (stereo unspecified)
  activity change, negative = inhibition: inactive: 3.4%
COC(=O)N1C(=O)[C@](c2ccc(Cl)cc2)(C(C)C)N1C(=O)OC
  Potency: inconclusive: 35.5 µM [falling, single point]
